Assay results: PMC6576074, “NF‐YB1‐YC12‐bHLH144 complex directly activates Wx to regulate grain quality in rice (Oryza sativa L.)”
Results are given in words; binding and its absence hold for the method and conditions named. Binding calls can cover weak binding; strength is not graded here. For some of these results: Tags and fused reporters may be left off the sequences shown. For some of these results: Binding seen in cells or lysates may run through a third protein. Blank lines part the entries; values can stand above or below the binder they belong to.

Experiments:
[1] = molecular target: GST‐NF‐YC12 (rice (Oryza sativa L.)); assay: pull-down; GST pull-down with two proteins; Glutathione High Capacity Magnetic Agarose Beads, 500 μg of each recombinant protein in 600 μL pull-down buffer (50 mM Tris‐HCl pH 7.5, 5% glycerol, 1 mM EDTA, 1 mM DTT, 1 mM PMSF, 0.01% Nonidet P‐40, 150 mM KCl), 4 °C, 2 h; immunoblot; both purified
[2] = molecular target: NF‐YC11‐pBT (rice (Oryza sativa L.)); assay: two-hybrid; bacterial two-hybrid (BacterioMatch II) in E. coli XL1‐Blue MRF′; NF‐YB1‐pTRG and NF‐YCs‐pBT; growth on M9/+Cm/+Ter/+3‐AT/+Strep/‐HIS against M9/+Cm/+Ter; intensity = ratio (%) of colony numbers
[3] = molecular target: truncated NF‐YC12 without the 5′ upstream region of the HLD (rice (Oryza sativa L.)); assay: as above
[4] = molecular target: NF‐YC12 in MCS3 of pDOE‐BiFC (rice (Oryza sativa L.)); assay: split reporter; BiFC (pDOE‐BiFC, YFP) in Nicotiana benthamiana leaf epidermal cells, confocal microscopy 72 h after infiltration; without NF‐YC12‐mcherry as third protein

binding [1]: binds
B1: HIS‐NF‐YB1 (protein, UniProt Q6Z348 1-186)
chain: MAGNKKRGGRNMDQVKKAAVRSDGVGGSATNAELPMANLVRLIKKVLPGKAKIGGAAKGLTHDCAVEFVGFVGDEASEKAKAEHRRTVAPEDYLGSFGDLGFDRYVDPMDAYIHGYREFERAGGNRRVAPPPPAAATPLTPGGPTFTDAELQFLRSVIPSRSDDEYSGSSPAIGGYGYGYGYGKNM

binding [2]: binds | binding [3]: binds
B2: NF‐YB1‐pTRG (protein, UniProt Q6Z348 1-186)
chain: B1 chain

binding [4]: binds
B3: NF‐YB1 in MCS1 of pDOE‐BiFC (protein, UniProt Q6Z348 1-186)
chain: B1 chain
